Data as given in PubChem BioAssay AID1259424 (University of Nebraska Medical Center, 2018).
The deposit covers about 14,000 reagents; this is a part drawn at random. 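Higher correlation or smaller distance means closer resemblance to KSR1 loss; control wells, including KSR1 knockdowns, recur on many plates.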 The record does not give: the time to read-out.

Test: 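Seek colon cancer survival genes behaving like KSR1, using a six-gene signature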 (primary screen)
Cells: human HCT116 colon cancer cells
Reagent: siRNA pool against human genes, 50 nM
Detection: 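Six signature mRNAs by branched-DNA multiplex assay, scaled to two housekeeping genes and non-targeting median, log2; matched to mean KSR1 knockdown profile by Pearson correlation and euclidean distance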
Reading the numbers: mean correlation with KSR1 profile and KSR1 correlation: higher = expression change more like KSR1 knockdown; mean distance from KSR1 profile: higher = expression change less like KSR1 knockdown

no.	gene	mean correlation with KSR1 profile	mean distance from KSR1 profile	KSR1 correlation, replicate 1	KSR1 correlation, replicate 2	KSR1 correlation, replicate 3
1	ETS2	0.0709	2.93	0.411	0.0682	0.0641
2	STK10	0.0608	1.94	0.414	-0.256	-0.301
3	CNKSR1	-0.0421	2.75	0.267	-0.343	-0.16
4	ST3GAL6	-0.249	2.08	-0.0524	-0.401	-0.196
5	ACTL6A	-0.575	2.97	-0.436	-0.715	-0.591
6	NETO2	0.607	1.18	0.394	0.502	0.697
7	DNAJA3	0.146	2.34	0.313	0.163	0.221
8	SSRP1	0.377	2.12	0.297	0.464	0.303
9	PHF7	-0.334	1.91	-0.393	-0.348	-0.0203
10	CARM1	-0.187	3.2	-0.131	-0.135	-0.342
11	FMO5	0.266	3.32	0.306	0.591	-0.0228
12	CSF3	0.105	1.76	0.212	0.0167	0.104
13	BTN3A1	0.118	2.61	-0.0113	0.0525	0.261
14	PDYN	-0.12	0.906	0.274	0.757	-0.521
15	VTA1	-0.556	3.51	-0.691	-0.493	-0.35
16	ARHGAP6	0.119	1.5	0.32	-0.00264	-0.147
17	APLNR	0.831	1.83	0.783	0.811	0.898
18	ITGAD	-0.0788	3.57	-0.0236	-0.261	-0.2
19	ASGR1	-0.249	2.37	-0.253	-0.162	-0.613
20	ALDOB	0.45	1.61	0.287	0.251	0.537
21	NNT	-0.319	3.29	-0.335	-0.327	-0.393
22	ZNF706	-0.0882	1.24	-0.364	0.26	0.169
23	BST1	0.414	2.53	0.467	0.422	0.17
24	EIF3F	-0.0122	4.68	-0.0147	0.061	0.0331

A run of entries of the results above:
no.	gene	mean correlation with KSR1 profile	mean distance from KSR1 profile	KSR1 correlation, replicate 1	KSR1 correlation, replicate 2	KSR1 correlation, replicate 3
7	DNAJA3	0.146	2.34	0.313	0.163	0.221
8	SSRP1	0.377	2.12	0.297	0.464	0.303
9	PHF7	-0.334	1.91	-0.393	-0.348	-0.0203

Continued:
no.	gene	mean correlation with KSR1 profile	mean distance from KSR1 profile	KSR1 correlation, replicate 1	KSR1 correlation, replicate 2	KSR1 correlation, replicate 3
25	PRDM11	0.328	1.94	0.368	0.224	0.127
26	CYBC1	0.323	2.11	0.503	0.284	0.146
27	KLRC4	0.0316	1.77	0.00499	-0.0535	0.337
28	SPINK2	0.107	1.69	0.135	-0.0338	0.268
29	RPGRIP1L	0.582	1.38	0.598	0.499	0.548
30	RASD2	-0.0686	1.88	-0.268	-0.243	0.278
31	RBM28	0.183	2.78	0.314	-0.0397	0.00695
32	SOAT2	0.406	2.43	0.36	0.427	0.358
33	USP3	-0.359	1.97	-0.24	-0.435	-0.524
34	CGB8	-0.266	2.19	-0.319	-0.256	-0.38
35	NPAS3	0.255	1.69	0.551	0.0399	0.277
36	GPR37	0.68	2.69	0.578	0.689	0.652
37	PLK2	0.258	2.62	0.528	0.268	-0.0833
38	CRELD1	0.707	2.08	0.714	0.529	0.598
39	TMEM109	0.00891	1.81	0.0352	-0.305	-0.223
40	DHX15	-0.632	2.26	-0.649	-0.529	-0.706
41	KLHL11	-0.797	5.9	-0.409	-0.472	-0.562
42	PBLD	-0.373	1.39	-0.589	-0.12	-0.654
43	NFIC	0.763	1.15	0.867	0.873	0.658
44	BHMT2	-0.49	1.85	-0.0619	-0.869	-0.337
45	TAS2R14	0.755	1.16	0.762	0.771	0.782
46	CIRBP	0.785	0.729	0.741	0.777	0.785
47	C6	-0.448	1.46	-0.323	-0.335	-0.409
48	SEC62	0.675	3.98	0.754	0.587	0.68
49	ANXA8L1	-0.0304	2.01	-0.508	-0.291	0.27
50	CITED1	0.321	1.64	0.359	0.777	0.0565
